Values of other authors in US10028971B2, “Compositions and methods for treating psychiatric disorders” (GOSFORTH CENTRE (HOLDINGS) PTY LTD., priority 2008, dated 2018).
At least one structure is not confirmed: it was looked up by name or label, or the drawing left a doubt.

Tested on: mood stabilisation or epileptic symptoms or events
Details: usual minimum anti-convulsant dose per day; cited from earlier work

With `CCOC(=O)Nc1ccc(NCc2ccc(F)cc2)cc1N` [Retigabine] as the compound, how does the “Minimum Dose/day effective for mood stabilisation or treatment of epileptic symptoms or events” value read?
The value was 600 mg.
